Results from patent US20110195849A1.
These are yes or no findings as the source states them, for the method shown.

Amino acid sequences for entries named in this document (tags omitted). A change or cut given only in a name is not applied to a line headed by its entry. Residues count along the entry.
UniProt P02769, residues 25-607: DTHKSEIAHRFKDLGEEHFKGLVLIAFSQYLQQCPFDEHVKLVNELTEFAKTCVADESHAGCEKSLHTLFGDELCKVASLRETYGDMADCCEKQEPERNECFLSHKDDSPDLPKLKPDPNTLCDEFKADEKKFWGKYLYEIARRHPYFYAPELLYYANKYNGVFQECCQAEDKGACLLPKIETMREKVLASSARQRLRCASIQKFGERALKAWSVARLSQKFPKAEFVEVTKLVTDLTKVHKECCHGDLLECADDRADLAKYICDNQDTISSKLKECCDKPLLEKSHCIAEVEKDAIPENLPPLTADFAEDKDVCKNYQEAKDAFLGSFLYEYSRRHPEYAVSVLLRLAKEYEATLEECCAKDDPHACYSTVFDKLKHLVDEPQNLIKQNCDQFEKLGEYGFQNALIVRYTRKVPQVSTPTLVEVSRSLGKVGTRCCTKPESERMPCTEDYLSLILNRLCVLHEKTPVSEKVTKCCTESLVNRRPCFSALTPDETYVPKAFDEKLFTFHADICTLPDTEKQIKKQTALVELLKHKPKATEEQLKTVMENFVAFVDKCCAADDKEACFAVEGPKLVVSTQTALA
UniProt P40692: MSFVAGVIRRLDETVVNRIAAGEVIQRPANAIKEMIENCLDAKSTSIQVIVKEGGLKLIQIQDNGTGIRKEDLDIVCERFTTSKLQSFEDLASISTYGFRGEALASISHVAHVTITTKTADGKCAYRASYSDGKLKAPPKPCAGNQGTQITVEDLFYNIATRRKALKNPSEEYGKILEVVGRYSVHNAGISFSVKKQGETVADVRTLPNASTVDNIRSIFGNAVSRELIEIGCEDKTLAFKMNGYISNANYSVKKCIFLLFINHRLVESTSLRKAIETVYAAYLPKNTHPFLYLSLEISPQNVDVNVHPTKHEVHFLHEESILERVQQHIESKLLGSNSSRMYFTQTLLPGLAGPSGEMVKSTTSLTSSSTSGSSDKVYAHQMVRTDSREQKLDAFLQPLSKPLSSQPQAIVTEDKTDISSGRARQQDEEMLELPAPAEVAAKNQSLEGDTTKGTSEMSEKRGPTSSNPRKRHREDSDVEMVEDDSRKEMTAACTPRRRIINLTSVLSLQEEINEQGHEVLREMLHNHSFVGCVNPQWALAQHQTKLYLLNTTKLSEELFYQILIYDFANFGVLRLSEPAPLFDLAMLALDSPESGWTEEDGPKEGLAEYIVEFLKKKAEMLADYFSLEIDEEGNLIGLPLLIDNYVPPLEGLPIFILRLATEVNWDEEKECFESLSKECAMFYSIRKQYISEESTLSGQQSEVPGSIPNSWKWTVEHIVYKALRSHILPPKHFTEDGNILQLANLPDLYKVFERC
UniProt P12004: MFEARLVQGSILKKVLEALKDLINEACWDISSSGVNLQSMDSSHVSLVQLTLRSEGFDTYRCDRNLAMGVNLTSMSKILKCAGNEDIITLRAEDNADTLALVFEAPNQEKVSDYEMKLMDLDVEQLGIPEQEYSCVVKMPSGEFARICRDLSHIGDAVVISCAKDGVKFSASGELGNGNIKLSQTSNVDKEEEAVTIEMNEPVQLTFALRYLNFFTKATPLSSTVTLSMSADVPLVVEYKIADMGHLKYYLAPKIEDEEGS

Legend:
BSA (Bos taurus) [1] = biological target: BSA (Bos taurus) (UniProt P02769); test: far-western after 7% SDS-PAGE and transfer to nitrocellulose, MutLα in solution, anti-MLH1 detection [right panel (MutLα far western]
BSA (Bos taurus) [2] = biological target: BSA (Bos taurus) (UniProt P02769); test: condition: 4 pmol BSA spotted, 0.18 µM MutLα in solution; far-western dot blot, 0.25-4 pmol protein spotted on nitrocellulose, MutLα in solution, anti-MLH1 detection [lower blot (MutLα]
BSA (Bos taurus) [3] = biological target: BSA (Bos taurus) (UniProt P02769); test: condition: 4 pmol BSA spotted, 0.18 µM PCNA in solution; far-western dot blot, 0.25-4 pmol protein spotted on nitrocellulose, PCNA in solution, anti-PCNA detection [upper blot (PCNA]

Row | binding (BSA (Bos taurus) [2]) | binding (BSA (Bos taurus) [3]) | Substance | binding (BSA (Bos taurus) [1])
1 | no binding |  | MutLα (MLH1-PMS2) (from UniProt P40692 1-756; P54278 1-862) (enzyme) | no binding (tested: 0.09 µM MutLα, 2 pmol protein on the gel)
2 |  | no binding | PCNA (from UniProt P12004 1-261) | 
